PubChem BioAssay AID1259308, NCATS | 2017

- Assay: 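Knock-downs that increase output of a recombinant reporter protein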 (primary screen)
- System: human HEK293 embryonic kidney cells stably expressing firefly luciferase (HEK-CMV-Luc2-Hygro)
- Knock-down reagent: single siRNA against human genes, 0.8 pmol siRNA per well
- Duration: 72 h
- Read-out: 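Luciferase light (ONE-Glo) measured on one replicate plate set and viability (CellTiter-Glo) on the other, scaled to a negative control siRNA, with robust z-scores and luciferase per cell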
- Reading the numbers: total luciferase, z-score and total luciferase, % of control: higher = more reporter protein produced
- Hit rule: 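Active when the median/MAD z-score for overall luciferase is greater than 3; a gene was taken forward for validation with new siRNAs if at least two of its three siRNAs passed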
- Calls: active = raised luciferase; inactive = no rise
Shown is a random part of about 59,000 reagents tested. About 1,510 of all reagents (2.6%) were called active. 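Calls use total luciferase alone and ignore viability, so some active siRNAs may act by altering cell number.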 A number with no mark means an inactive call. Reagents against one gene are numbered here. Not all columns of the deposit are shown.

What is on record for AMBN #1?
total luciferase, z-score: -0.599; total luciferase, % of control: 70

Which result is listed for AMBN #2?
total luciferase, z-score: -0.692; total luciferase, % of control: 68.1

Which result is listed for AMBN #3?
total luciferase, z-score: -0.0668; total luciferase, % of control: 80.6

For UNC13B #1, what was measured?
total luciferase, z-score: 0.411; total luciferase, % of control: 90.1

For UNC13B #2, what was measured?
total luciferase, z-score: -1.24; total luciferase, % of control: 57.3

What is on record for UNC13B #3?
total luciferase, z-score: -2.55; total luciferase, % of control: 31.2

What is on record for MYOCD #1?
total luciferase, z-score: -1.48; total luciferase, % of control: 52.4

How did the screen score MYOCD #2?
total luciferase, z-score: 0.533; total luciferase, % of control: 92.5

What did the screen give for MYOCD #3?
total luciferase, z-score: -0.569; total luciferase, % of control: 70.6

What is on record for VPS37A #1?
total luciferase, z-score: 0.0512; total luciferase, % of control: 82.9

Which result is listed for VPS37A #2?
total luciferase, z-score: 1.12; total luciferase, % of control: 104

With VPS37A #3, what was measured?
total luciferase, z-score: -0.872; total luciferase, % of control: 64.5

With GDPD5 #1, what does the deposit list?
total luciferase, z-score: 0.475; total luciferase, % of control: 91.3

With GDPD5 #2, how do the results read?
total luciferase, z-score: 0.411; total luciferase, % of control: 90.1

With GDPD5 #3, how do the results read?
total luciferase, z-score: 4.08 (active); total luciferase, % of control: 163

What is on record for NUGGC #1?
total luciferase, z-score: -0.267; total luciferase, % of control: 76.6

With NUGGC #2, what does the deposit list?
total luciferase, z-score: 0.424; total luciferase, % of control: 90.3

What did the screen give for NUGGC #3?
total luciferase, z-score: 0.369; total luciferase, % of control: 89.2

Which result is listed for BYSL #1?
total luciferase, z-score: -0.378; total luciferase, % of control: 74.4

What is on record for BYSL #2?
total luciferase, z-score: 2.66; total luciferase, % of control: 135

What did the screen give for BYSL #3?
total luciferase, z-score: 0.867; total luciferase, % of control: 99.1

Targets above whose target name starts with N or n:
NUGGC #1 → total luciferase, z-score = -0.267; total luciferase, % of control = 76.6
NUGGC #2 → total luciferase, z-score = 0.424; total luciferase, % of control = 90.3
NUGGC #3 → total luciferase, z-score = 0.369; total luciferase, % of control = 89.2

Continued:
With TBX15 #1, what does the deposit list?
total luciferase, z-score: -0.127; total luciferase, % of control: 79.4

What is on record for TBX15 #2?
total luciferase, z-score: 0.87; total luciferase, % of control: 99.2

With TBX15 #3, what was measured?
total luciferase, z-score: -0.701; total luciferase, % of control: 67.9

For MIB1 #1, how do the results read?
total luciferase, z-score: 0.54; total luciferase, % of control: 92.6

For MIB1 #2, what does the deposit list?
total luciferase, z-score: 1.14; total luciferase, % of control: 105

What is on record for MIB1 #3?
total luciferase, z-score: -0.557; total luciferase, % of control: 70.8

What is on record for KCNJ15 #1?
total luciferase, z-score: -0.0765; total luciferase, % of control: 80.4

Which result is listed for KCNJ15 #2?
total luciferase, z-score: -1.29; total luciferase, % of control: 56.2

With KCNJ15 #3, what does the deposit list?
total luciferase, z-score: -1.63; total luciferase, % of control: 49.5

Which result is listed for LINC00668 #1?
total luciferase, z-score: -0.0975; total luciferase, % of control: 79.9

With LINC00668 #2, what was measured?
total luciferase, z-score: -0.235; total luciferase, % of control: 77.2

What did the screen give for LINC00668 #3?
total luciferase, z-score: -0.0772; total luciferase, % of control: 80.4
